For part of these data: Protein sequences can lack the tags named with them.
Legend:
Test in all cases: activity in cells
Conditions in all cases: protein in cells, only the site is given
[1] = system: T1, A118 recombinase (Listeria monocytogenes bacteriophage A118)
T1 sequence (limits assumed): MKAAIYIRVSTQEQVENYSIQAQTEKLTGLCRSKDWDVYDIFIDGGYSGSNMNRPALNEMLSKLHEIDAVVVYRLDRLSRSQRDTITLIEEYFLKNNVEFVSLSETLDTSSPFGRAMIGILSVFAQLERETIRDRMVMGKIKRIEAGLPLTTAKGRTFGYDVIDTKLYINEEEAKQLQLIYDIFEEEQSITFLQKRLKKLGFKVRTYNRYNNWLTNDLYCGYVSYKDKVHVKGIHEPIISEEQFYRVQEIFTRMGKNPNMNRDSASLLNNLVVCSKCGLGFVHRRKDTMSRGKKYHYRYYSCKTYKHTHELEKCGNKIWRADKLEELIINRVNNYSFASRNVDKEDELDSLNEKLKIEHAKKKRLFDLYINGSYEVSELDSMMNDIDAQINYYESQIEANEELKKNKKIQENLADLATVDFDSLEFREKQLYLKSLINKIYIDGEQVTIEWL

[2] = system: T2, TP901 recombinase (TP901-1 integrase)
T2 sequence (limits assumed): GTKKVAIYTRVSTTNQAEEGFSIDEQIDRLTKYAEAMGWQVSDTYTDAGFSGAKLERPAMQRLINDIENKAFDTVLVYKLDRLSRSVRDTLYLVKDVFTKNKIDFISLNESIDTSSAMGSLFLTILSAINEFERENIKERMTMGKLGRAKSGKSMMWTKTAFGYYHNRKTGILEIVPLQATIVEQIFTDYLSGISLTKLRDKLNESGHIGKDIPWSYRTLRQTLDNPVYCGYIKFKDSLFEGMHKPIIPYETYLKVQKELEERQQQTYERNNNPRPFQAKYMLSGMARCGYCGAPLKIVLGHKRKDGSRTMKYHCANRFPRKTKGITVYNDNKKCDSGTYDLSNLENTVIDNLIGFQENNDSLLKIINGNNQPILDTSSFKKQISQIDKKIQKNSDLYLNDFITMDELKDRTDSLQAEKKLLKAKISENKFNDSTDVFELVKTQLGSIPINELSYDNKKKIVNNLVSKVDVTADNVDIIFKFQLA

[3] = system: BxbI recombinase (Bxb1 integrase)

**Q.** Which “activity on this sequence” value ([1]; recombines with attP-AA, orthogonal to GG pair, variant of A118B-GG attB) does the source give for “AACTTTTCGGATCAAGCTATGAAAAACGCAAAGAGGGAACTAAACACTT (double strand) [A118B-AA attB]” here?
**A.** The value was “active”.

**Q.** “AACTTTTCGGATCAAGCTATGAAGGACGCAAAGAGGGAACTAAACACTT (double strand) [A118B-GG attB]” was tested. Which “activity on this sequence” value ([1]; recombines with attP-GG) did it give?
**A.** The value was “active”.

**Q.** Which “activity on this sequence” value ([2]; recombines with attP-AG, at least 97% of cells in expected state (5-state RSM), variant of TP901B-TC attB) does the source give for “ATGCCAACACAATTAACATCAGAATCAAGGTAAATGCTTTTTGCTTTTTTTGC (double strand) [TP901B-AG attB]” here?
**A.** Its value is “active”.

**Q.** With “ATGCCAACACAATTAACATCTCAATCAAGGTAAATGCTTTTTGCTTTTTTTGC (double strand) [TP901B-TC attB]” as the sequence, how does the “activity on this sequence” value ([2]; recombines with attP-TC, rare recombination between mismatched-dinucleotide TP901 sites seen) read?
**A.** Its value is “active”.

**Q.** With “CGGCCGGCTTGTCGACGACGGCGCACTCCGTCGTCAGGATCATCCGGGC (double strand) [BxbIB-CA attB]” as the sequence, how does the “activity on this sequence” value ([3]; recombines with attP-CA, orthogonal to GT pair, variant of BxbIB-GT attB) read?
**A.** The value was “active”.

**Q.** How did the “activity on this sequence” value ([3]; recombines with attP-GT in 3-input 16-state register, 88-100% of cells in expected state) turn out when “CGGCCGGCTTGTCGACGACGGCGGTCTCCGTCGTCAGGATCATCCGGGC (double strand) [BxbIB-GT attB]” was run?
**A.** The value was “active”.

**Q.** Which “activity on this sequence” value ([2]; recombines with attB-AG, at least 97% of cells in expected state (5-state RSM), variant of TP901P-TC attP) does the source give for “GCGAGTTTTTATTTCGTTTATTAGAATTAAGGTAACTAAAAAACTCCTTT (double strand) [TP901P-AG attP]” here?
**A.** Its value is “active”.

**Q.** How did the “activity on this sequence” value ([2]; recombines with attB-TC, rare recombination between mismatched-dinucleotide TP901 sites seen) turn out when “GCGAGTTTTTATTTCGTTTATTTCAATTAAGGTAACTAAAAAACTCCTTT (double strand) [TP901P-TC attP]” was run?
**A.** The value was “active”.

**Q.** “GTCGTGGTTTGTCTGGTCAACCACCGCGCACTCAGTGGTGTACGGTACAAACCCCGAC (double strand) [BxbIP-CA attP]” was tested. Which “activity on this sequence” value ([3]; recombines with attB-CA, orthogonal to GT pair, variant of BxbIP-GT attP) did it give?
**A.** The value was “active”.

**Q.** For “GTCGTGGTTTGTCTGGTCAACCACCGCGGTCTCAGTGGTGTACGGTACAAACCCCGAC (double strand) [BxbIP-GT attP]”, which “activity on this sequence” value ([3]; recombines with attB-GT in 3-input 16-state register) is on record?
**A.** Its value is “active”.

**Q.** “TTAGTTCCTCGTTTTCTCTCGTTAAAAGAAGAAGAAACGAGAAACTAAA (double strand) [A118P-AA attP]” was tested. Which “activity on this sequence” value ([1]; recombines with attB-AA, orthogonal to GG pair, variant of A118P-GG attP) did it give?
**A.** The value was “active”.

**Q.** How did the “activity on this sequence” value ([1]; recombines with attB-GG) turn out when “TTAGTTCCTCGTTTTCTCTCGTTGGAAGAAGAAGAAACGAGAAACTAAA (double strand) [A118P-GG attP]” was run?
**A.** The value was “active”.

Reference: US20170096680
